Experimental data: the supplement of paper PMC4604168 (melanoma cell lines)
This is one part of the list. Repeats are few or missing, and single values can be far off.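 The apoptosis fraction was the count of cleaved-PARP antibody-stained nuclei relative to all DNA-stained nuclei, imaged in 1,536-well plates. Screening doses were set so most cells survived, and baseline and induced cleaved-PARP levels vary greatly across cell lines.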

Key:
Test in all cases: cleaved PARP positive nuclei fraction relative to DMSO control; melanoma cells; higher = more apoptosis
Conditions in all cases: library dose: low library concentration; 72 h
501Mel = tested on: 501Mel
A101D = tested on: A101D
A2058 = tested on: A2058
A375 = tested on: A375
C32 = tested on: C32
CBRC008 = tested on: CBRC008 (line from a melanoma biopsy)
CBRC013 = tested on: CBRC013 (line from a melanoma biopsy)
CBRC014 = tested on: CBRC014 (line from a melanoma biopsy)
CBRC016 = tested on: CBRC016 (line from a melanoma biopsy)
CBRC017 = tested on: CBRC017 (line from a melanoma biopsy)
COLO792 = tested on: COLO792
COLO800 = tested on: COLO800
COLO829 = tested on: COLO829
G361 = tested on: G361
IPC-298 = tested on: IPC-298
IST-MEL1 = tested on: IST-MEL1
LB2518-MEL = tested on: LB2518-MEL
LOXIMVI = tested on: LOXIMVI
MEL-HO = tested on: MEL-HO

| SMILES | cleaved PARP positive nuclei fraction (501Mel) [%] | cleaved PARP positive nuclei fraction (A101D) [%] | cleaved PARP positive nuclei fraction (A2058) [%] | cleaved PARP positive nuclei fraction (A375) [%] | cleaved PARP positive nuclei fraction (C32) [%] | cleaved PARP positive nuclei fraction (CBRC008) [%] | cleaved PARP positive nuclei fraction (CBRC013) [%] | cleaved PARP positive nuclei fraction (CBRC014) [%] | cleaved PARP positive nuclei fraction (CBRC016) [%] | cleaved PARP positive nuclei fraction (CBRC017) [%] | cleaved PARP positive nuclei fraction (COLO792) [%] | cleaved PARP positive nuclei fraction (COLO800) [%] | cleaved PARP positive nuclei fraction (COLO829) [%] | cleaved PARP positive nuclei fraction (G361) [%] | cleaved PARP positive nuclei fraction (IPC-298) [%] | cleaved PARP positive nuclei fraction (IST-MEL1) [%] | cleaved PARP positive nuclei fraction (LB2518-MEL) [%] | cleaved PARP positive nuclei fraction (LOXIMVI) [%] | cleaved PARP positive nuclei fraction (MEL-HO) [%] |
| --- | --- | --- | --- | --- | --- | --- | --- | --- | --- | --- | --- | --- | --- | --- | --- | --- | --- | --- | --- |
| COc1ccc(C2=N[C@@H](c3ccc(Cl)cc3)[C@@H](c3ccc(Cl)cc3)N2C(=O)N2CCNC(=O)C2)c(OC(C)C)c1 [Nutlin-3] + Cn1cncc1[C@@](N)(c1ccc(Cl)cc1)c1ccc2c(c1)c(-c1cccc(Cl)c1)cc(=O)n2C [tipifarnib] (first compound 0.1 µM, partner dose 0.01 µM) | 47.3 | 321 | 146 | 146 | 232 | 208 | 56.7 | 118 | 144 | 116 | 135 | 221 | 87.4 | 124 | 95.3 | 167 | 123 | 75.6 | 63.3 |
| CS(=O)(=O)c1ccc(C(=O)Nc2ccc(Cl)c(-c3ccccn3)c2)c(Cl)c1 [vismodegib] + NC(=O)Nc1cc(-c2cccc(F)c2)sc1C(=O)N[C@H]1CCCNC1 [AZD7762] (first compound 1 µM, partner dose 0.02 µM) | 160 | 261 | 61.1 | 201 | 64.1 | 67.6 | 125 | 79.3 | 121 | 97.8 | 126 | 73.3 | 142 | 82.6 | 41.7 | 28.8 | 16.4 | 88.1 | 186 |
| CCCCCCCCc1ccc(CCC(N)(CO)CO)cc1 [fingolimod] + Cn1cncc1[C@@](N)(c1ccc(Cl)cc1)c1ccc2c(c1)c(-c1cccc(Cl)c1)cc(=O)n2C [tipifarnib] (first compound 2 µM, partner dose 0.01 µM) | 190 | 52.1 | 110 | 157 | 100 | 105 | 96.6 | 102 | 110 | 133 | 158 | 78.4 | 208 | 48.2 | 92.9 | 35.4 | 125 | 269 | 70.1 |
| COc1ccc(C2=N[C@@H](c3ccc(Cl)cc3)[C@@H](c3ccc(Cl)cc3)N2C(=O)N2CCNC(=O)C2)c(OC(C)C)c1 [Nutlin-3] + C[C@@H]1CCN(C(=O)CC#N)C[C@@H]1N(C)c1ncnc2[nH]ccc12 [CP690550] (first compound 0.1 µM, partner dose 1 µM) | 78 | 93 | 217 | 20.9 | 89.4 | 173 | 110 | 83.3 | 57.5 | 110 | 87.6 | 8.63 | 38.3 | 62.9 | 90.3 | 111 | 104 | 16.4 | 46.9 |
| C[C@]1(O)C[C@@H](c2nc(-c3ccc4ccc(-c5ccccc5)nc4c3)c3c(N)nccn32)C1 + OCCn1cc(-c2cnc3nnn(Cc4ccc5ncccc5c4)c3n2)cn1 [PF04217903] (first compound 0.4 µM, partner dose 1 µM) | 182 | 87.2 | 98.7 | 173 | 101 | 131 | 70 | 494 | 97.2 | 79 | 188 | 85.1 | 115 | 103 | 48.9 | 101 | 104 | 53.5 | 103 |
| C[C@]1(O)C[C@@H](c2nc(-c3ccc4ccc(-c5ccccc5)nc4c3)c3c(N)nccn32)C1 + COc1cc2c(Oc3ccc4[nH]c(C)cc4c3F)ncnc2cc1OCCCN1CCCC1 [cediranib] (first compound 0.4 µM, partner dose 0.4 µM) | 60.9 | 285 | 114 | 106 | 109 | 71.8 | 77.4 | 88.6 | 40.1 | 82.5 | 125 | 252 | 78.4 | 50.3 | 91.2 | 88.9 | 90.9 | 127 | 76.8 |
| CCCCCCCCc1ccc(CCC(N)(CO)CO)cc1 [fingolimod] + COc1cc2c(Oc3ccc4[nH]c(C)cc4c3F)ncnc2cc1OCCCN1CCCC1 [cediranib] (first compound 2 µM, partner dose 0.4 µM) | 289 | 174 | 35.4 | 228 | 115 | 124 | 176 | 109 | 64 | 110 | 90.8 | 142 | 77.6 | 121 | 42.6 | 97.7 | 51.2 | 111 | 44.5 |
| CN(c1ncccc1CNc1nc(Nc2ccc3c(c2)CC(=O)N3)ncc1C(F)(F)F)S(C)(=O)=O + CC1(C)NC(=O)N(c2ccc([N+](=O)[O-])c(C(F)(F)F)c2)C1=O [nilutamide] (first compound 0.08 µM, partner dose 1 µM) | 102 | 85.9 | 56.7 | 74.3 | 26.9 | 126 | 120 | 83.3 | 99 | 77.5 | 79.9 | 49.6 | 94.4 | 129 | 61.7 | 61.8 | 95.1 | 104 | 30.1 |
| C[C@]1(O)C[C@@H](c2nc(-c3ccc4ccc(-c5ccccc5)nc4c3)c3c(N)nccn32)C1 + Cc1ccc(NC(=O)c2cccc(N(C)C)c2)cc1NC(=O)c1ccc(O)cc1 [ZM336372] (first compound 0.4 µM, partner dose 2 µM) | 93.7 | 46.4 | 52.3 | 46 | 114 | 139 | 100 | 102 | 100 | 119 | 131 | 105 | 38.4 | 133 | 22.7 | 137 | 41.1 | 102 | 82.7 |
| CCCCCCCCc1ccc(CCC(N)(CO)CO)cc1 [fingolimod] + CN(NC(=O)CC(=O)NN(C)C(=S)c1ccccc1)C(=S)c1ccccc1 [STA4783] (first compound 2 µM, partner dose 0.006 µM) | 470 | 103 | 174 | 2080 | 250 | 740 | 117 | 384 | 226 | 133 | 83.6 | 108 | 163 | 91 | 101 | 307 | 25 | 49.3 | 170 |
| Cn1cnc2c(F)c(Nc3ccc(Br)cc3Cl)c(C(=O)NOCCO)cc21 [selumetinib] + CN(NC(=O)CC(=O)NN(C)C(=S)c1ccccc1)C(=S)c1ccccc1 [STA4783] (first compound 0.015 µM, partner dose 0.006 µM) | 1260 | 46.1 | 330 | 2520 | 216 | 3330 | 145 | 521 | 737 | 678 | 217 | 141 | 269 | 216 | 199 | 279 | 553 | 43 | 156 |
| CCN(CC)CCNC(=O)c1c(C)[nH]c(/C=C2\C(=O)Nc3ccc(F)cc32)c1C [sunitinib] + O=C(O)c1ccc(-c2c[nH]c3ncc(-c4ccccc4)cc23)cc1C1CCCC1 [GSK650394] (first compound 0.4 µM, partner dose 0.16 µM) | 194 | 125 | 145 | 184 | 105 | 208 | 241 | 96.8 | 174 | 134 | 77.9 | 70.3 | 91.5 | 75.2 | 32.3 | 51.2 | 95.2 | 60.3 | 139 |
| CC1(C)CCC(c2ccc(Cl)cc2)=C(CN2CCN(c3ccc(C(=O)NS(=O)(=O)c4ccc(N[C@H](CCN5CCOCC5)CSc5ccccc5)c(S(=O)(=O)C(F)(F)F)c4)cc3)CC2)C1 + O=C(O)c1ccc(-c2c[nH]c3ncc(-c4ccccc4)cc23)cc1C1CCCC1 [GSK650394] (first compound 0.4 µM, partner dose 0.16 µM) | 93.2 | 279 | 235 | 312 | 229 | 276 | 181 | 704 | 351 | 383 | 792 | 87.1 | 57.9 | 68.6 | 44.1 | 130 | 111 | 92.3 | 79 |
| C[C@]1(O)C[C@@H](c2nc(-c3ccc4ccc(-c5ccccc5)nc4c3)c3c(N)nccn32)C1 + O=C(O)c1ccc(-c2c[nH]c3ncc(-c4ccccc4)cc23)cc1C1CCCC1 [GSK650394] (first compound 0.4 µM, partner dose 0.16 µM) | 95.3 | 72.7 | 63.9 | 441 | 33.4 | 400 | 115 | 99 | 164 | 176 | 45.6 | 237 | 164 | 74.7 | 47.9 | 50.1 | 92.2 | 70.7 | 146 |
| Cn1cnc2c(F)c(Nc3ccc(Br)cc3Cl)c(C(=O)NOCCO)cc21 [selumetinib] + CN(C)S(=O)(=O)c1ccc2c(c1)/C(=C/c1cc3c([nH]1)CCCC3)C(=O)N2 [SU6656] (first compound 0.015 µM, partner dose 0.4 µM) | 197 | 46.6 | 70 | 201 | 142 | 137 | 79.8 | 86.1 | 91.3 | 123 | 80 | 59.7 | 93.7 | 176 | 144 | 138 | 152 | 78 | 24.9 |
| CCN(CC)CCNC(=O)c1c(C)[nH]c(/C=C2\C(=O)Nc3ccc(F)cc32)c1C [sunitinib] + CC(C)(C)c1cnc(CSc2cnc(NC(=O)C3CCNCC3)s2)o1 [SNS-032] (first compound 0.4 µM, partner dose 0.01 µM) | 110 | 56.1 | 117 | 269 | 51.3 | 114 | 293 | 92.6 | 207 | 81.7 | 198 | 162 | 80.1 | 106 | 427 | 68.5 | 309 | 297 | 103 |

Reformatted with bars between the fields: entries from further up
SMILES | cleaved PARP positive nuclei fraction (501Mel) [%] | cleaved PARP positive nuclei fraction (A101D) [%] | cleaved PARP positive nuclei fraction (A2058) [%] | cleaved PARP positive nuclei fraction (A375) [%] | cleaved PARP positive nuclei fraction (C32) [%] | cleaved PARP positive nuclei fraction (CBRC008) [%] | cleaved PARP positive nuclei fraction (CBRC013) [%] | cleaved PARP positive nuclei fraction (CBRC014) [%] | cleaved PARP positive nuclei fraction (CBRC016) [%] | cleaved PARP positive nuclei fraction (CBRC017) [%] | cleaved PARP positive nuclei fraction (COLO792) [%] | cleaved PARP positive nuclei fraction (COLO800) [%] | cleaved PARP positive nuclei fraction (COLO829) [%] | cleaved PARP positive nuclei fraction (G361) [%] | cleaved PARP positive nuclei fraction (IPC-298) [%] | cleaved PARP positive nuclei fraction (IST-MEL1) [%] | cleaved PARP positive nuclei fraction (LB2518-MEL) [%] | cleaved PARP positive nuclei fraction (LOXIMVI) [%] | cleaved PARP positive nuclei fraction (MEL-HO) [%]
COc1ccc(C2=N[C@@H](c3ccc(Cl)cc3)[C@@H](c3ccc(Cl)cc3)N2C(=O)N2CCNC(=O)C2)c(OC(C)C)c1 [Nutlin-3] + Cn1cncc1[C@@](N)(c1ccc(Cl)cc1)c1ccc2c(c1)c(-c1cccc(Cl)c1)cc(=O)n2C [tipifarnib] (first compound 0.1 µM, partner dose 0.01 µM) | 47.3 | 321 | 146 | 146 | 232 | 208 | 56.7 | 118 | 144 | 116 | 135 | 221 | 87.4 | 124 | 95.3 | 167 | 123 | 75.6 | 63.3
CC1(C)CCC(c2ccc(Cl)cc2)=C(CN2CCN(c3ccc(C(=O)NS(=O)(=O)c4ccc(N[C@H](CCN5CCOCC5)CSc5ccccc5)c(S(=O)(=O)C(F)(F)F)c4)cc3)CC2)C1 + O=C(O)c1ccc(-c2c[nH]c3ncc(-c4ccccc4)cc23)cc1C1CCCC1 [GSK650394] (first compound 0.4 µM, partner dose 0.16 µM) | 93.2 | 279 | 235 | 312 | 229 | 276 | 181 | 704 | 351 | 383 | 792 | 87.1 | 57.9 | 68.6 | 44.1 | 130 | 111 | 92.3 | 79
CCN(CC)CCNC(=O)c1c(C)[nH]c(/C=C2\C(=O)Nc3ccc(F)cc32)c1C [sunitinib] + CC(C)(C)c1cnc(CSc2cnc(NC(=O)C3CCNCC3)s2)o1 [SNS-032] (first compound 0.4 µM, partner dose 0.01 µM) | 110 | 56.1 | 117 | 269 | 51.3 | 114 | 293 | 92.6 | 207 | 81.7 | 198 | 162 | 80.1 | 106 | 427 | 68.5 | 309 | 297 | 103
